“Also recorded” adds a separate entry of the source. For at least one compound, name, drawing or mass did not settle the structure.
How the values were obtained:
[1] = Standing systolic blood pressure and heart rate in normal volunteers during transdermal GTN, with oral folate or placebo; assay type: in vivo, human
Experimental: (§1) Normal volunteers (n=20) were randomized in a double bind, placebo-controlled fashion to either oral folate (5 mg per day) or placebo. After 1 week of this double-blind therapy, subjects returned to the laboratory. At that time, measures of standing systolic blood pressure and heart rate were recorded. Subsequently, measurements of forearm blood flow were made at rest and in response to sublingual nitroglycerin (0.6 mg). […] A Randomized Double-blind, Placebo-controlled Study, J Cardiovasc Pharm. 1999;34:645-659.
(§2) Subsequently all subjects all received transdermal GTN (0.6 mg/hr). Standing heart rate and blood pressure responses were repeated 3 hours after initial patch application. Subjects were discharged from the laboratory with instructions to take transdermal GTN continuously for the next 5 to 7 days, changing the patch each day at 0800 hours. After 5 to 7 days, subjects returned to the laboratory where measures of standing systolic blood pressure and heart rate as well as forearm blood flow were repeated.

[2] = Forearm blood flow by strain gauge plethysmography at rest and in response to sublingual nitroglycerin; assay type: in vivo, human; conditions: folate group (oral folate 5 mg per day), after 5 to 7 days of continuous transdermal GTN; sublingual GTN 0.6 mg
Experimental: as §1, §2

## Nc1nc(=O)c2nc(CNc3ccc(C(=O)N[C@@H](CCC(=O)O)C(=O)O)cc3)cnc2[nH]1 [folate]
[1]; folate group (oral folate 5 mg per day), following 5 to 7 days of continuous transdermal GTN 0.6 mg/hr, normal volunteers
  standing systolic blood pressure compared to baseline values: remained significantly decreased
[1]; supplemental oral folate 5 mg per day, conclusion from blood pressure and forearm blood flow findings
  development of tolerance during continuous therapy with GTN: effective in minimizing or preventing the development of tolerance; also recorded: prevents the development of tolerance
[2]
  forearm blood flow responses to sublingual GTN compared to responses prior to GTN therapy: remained unchanged

Reference: patent US6537992B2, “Regulation of organic nitrate tolerance” (priority 2001, dated 2003)
